Values from PubChem BioAssay AID1259308 (NCATS, 2017).

- Assay: 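Candidate targets for better recombinant protein yield in mammalian cells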 (primary screen)
- System: human HEK293 embryonic kidney cells stably expressing firefly luciferase (HEK-CMV-Luc2-Hygro)
- Reagents: single siRNA against human genes, 0.8 pmol siRNA per well
- Timing: 72 h
- Measured: 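Reporter luminescence and viable-cell signal on separate replicate plates, given as percent of non-targeting control and median/MAD z-scores, plus per-cell luciferase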
- Direction: total luciferase, z-score and total luciferase, % of control: higher = more reporter protein produced; luciferase per cell, z-score: higher = more reporter output per viable cell
- Active means: 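Active when the median/MAD z-score for overall luciferase is greater than 3; a gene was taken forward for validation with new siRNAs if at least two of its three siRNAs passed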
- Meaning of the calls: active = raised luciferase; inactive = no rise
Shown is a random part of about 59,000 reagents. Of all reagents, about 1,510 (2.6%) are marked active. 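Calls use total luciferase alone and ignore viability, so some active siRNAs may act by altering cell number.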 The numbers tell different reagents against one gene apart. Not all columns of the deposit are shown. Reagent sequences are not shown.

| gene | reagent | total luciferase, z-score | total luciferase, % of control | luciferase per cell, z-score | outcome |
| --- | --- | --- | --- | --- | --- |
| EPHA1 | 1 | 0.698 | 95.8 | 0.183 | inactive |
| EPHA1 | 2 | 0.00107 | 81.9 | 0.189 | inactive |
| EPHA1 | 3 | 0.0872 | 83.6 | 0.1 | inactive |
| CDKL1 | 1 | -0.0305 | 81.3 | 0.413 | inactive |
| CDKL1 | 2 | -0.201 | 77.9 | -0.363 | inactive |
| CDKL1 | 3 | -1.28 | 56.5 | -1.06 | inactive |
| OXTR | 1 | 3.51 | 152 | 2.8 | active |
| OXTR | 2 | -0.814 | 65.7 | -0.747 | inactive |
| OXTR | 3 | -0.332 | 75.3 | -0.316 | inactive |
| MESTP3 | 1 | -0.396 | 74 | -0.538 | inactive |
| MESTP3 | 2 | -1.04 | 61.3 | 0.599 | inactive |
| MESTP3 | 3 | -0.0215 | 81.5 | 0.381 | inactive |
| FMC1 | 1 | 1.52 | 112 | 1.71 | inactive |
| FMC1 | 2 | 2.74 | 136 | 2.82 | inactive |
| FMC1 | 3 | -0.561 | 70.7 | -0.269 | inactive |
| GRIA2 | 1 | -0.788 | 66.2 | -0.578 | inactive |
| GRIA2 | 2 | 0.307 | 88 | 0.308 | inactive |
| GRIA2 | 3 | -2.13 | 39.6 | -3.6 | inactive |
| ZNF80 | 1 | -0.0898 | 80.1 | -0.032 | inactive |
| ZNF80 | 2 | -1.02 | 61.5 | -0.688 | inactive |
| ZNF80 | 3 | -0.275 | 76.4 | -0.215 | inactive |
| CCL1 | 1 | -0.469 | 72.6 | -0.763 | inactive |
| CCL1 | 2 | 1.55 | 113 | 0.656 | inactive |
| CCL1 | 3 | -1.07 | 60.6 | -0.749 | inactive |

Next part (5 carried over from the part before).
| gene | reagent | total luciferase, z-score | total luciferase, % of control | luciferase per cell, z-score | outcome |
| --- | --- | --- | --- | --- | --- |
| ZNF80 | 2 | -1.02 | 61.5 | -0.688 | inactive |
| ZNF80 | 3 | -0.275 | 76.4 | -0.215 | inactive |
| CCL1 | 1 | -0.469 | 72.6 | -0.763 | inactive |
| CCL1 | 2 | 1.55 | 113 | 0.656 | inactive |
| CCL1 | 3 | -1.07 | 60.6 | -0.749 | inactive |
| GYPB | 1 | -0.566 | 70.6 | -0.551 | inactive |
| GYPB | 2 | 0.634 | 94.5 | 0.432 | inactive |
| GYPB | 3 | 0.0181 | 82.2 | -0.146 | inactive |
| SUMF2 | 1 | 0.131 | 84.5 | -0.154 | inactive |
| SUMF2 | 2 | -0.614 | 69.7 | -0.224 | inactive |
| SUMF2 | 3 | 1.19 | 106 | 0.728 | inactive |
| CD3G | 1 | -0.269 | 76.5 | -0.478 | inactive |
| CD3G | 2 | -1.97 | 42.7 | -1.93 | inactive |
| CD3G | 3 | 0.849 | 98.8 | 0.0422 | inactive |
| ZNF248 | 1 | -0.526 | 71.4 | 0.129 | inactive |
| ZNF248 | 2 | 0.754 | 96.9 | 0.341 | inactive |
| ZNF248 | 3 | 0.0819 | 83.5 | -0.149 | inactive |
| TGFB2-AS1 | 1 | 0.0873 | 83.6 | -0.533 | inactive |
| TGFB2-AS1 | 2 | 0.333 | 88.5 | 0.162 | inactive |
| TGFB2-AS1 | 3 | 1.49 | 112 | 1.19 | inactive |
| MARCHF6 | 1 | -0.604 | 69.9 | -0.657 | inactive |
| MARCHF6 | 2 | 1.33 | 108 | 2.34 | inactive |
| MARCHF6 | 3 | -0.799 | 66 | -1.26 | inactive |
| CSMD3 | 1 | 1.1 | 104 | -0.05 | inactive |
| CSMD3 | 2 | -1.33 | 55.5 | -1.66 | inactive |
| CSMD3 | 3 | 0.757 | 96.9 | 1.18 | inactive |
| FCRL1 | 1 | -0.843 | 65.1 | -1.3 | inactive |
| FCRL1 | 2 | -0.657 | 68.8 | -0.418 | inactive |
| FCRL1 | 3 | 0.643 | 94.7 | 0.725 | inactive |
| ZAN | 1 | -0.179 | 78.3 | -0.459 | inactive |
| ZAN | 2 | 1.13 | 104 | 1.15 | inactive |
| ZAN | 3 | 0.942 | 101 | 0.484 | inactive |
| H1-3 | 1 | 1.22 | 106 | 0.632 | inactive |
| H1-3 | 2 | 2.99 | 141 | 2 | inactive |
| H1-3 | 3 | 0.222 | 86.3 | 0.272 | inactive |
| HACE1 | 1 | 0.0204 | 82.3 | -0.0631 | inactive |
| HACE1 | 2 | 0.102 | 83.9 | 0.103 | inactive |
| HACE1 | 3 | -0.688 | 68.2 | -0.751 | inactive |
